PubChem BioAssay AID1224826, NIAID | 2016
Assay: 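Knock-downs that raise or lower Tnf reporter signal after endotoxin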 (primary screen). Cells: RAW264.7 G9 macrophages from mouse bearing reporters for p65 (GFP) and the Tnf promoter (mCherry). Knock-down reagent: siRNA pool against mouse genes, 100 nM. Timing: 16 h of LPS stimulation, after 2 days of siRNA transfection. Conditions: bacterial lipopolysaccharide (Salmonella minnesota R595), 10 ng/ml. Detection: 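Nuclear mCherry signal of the Tnf promoter reporter measured by imaging after background removal, scaled to each plate median and turned into robust z-scores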. Scale: Tnf reporter robust z-score: higher = stronger Tnf promoter reporter signal after LPS. Active means: 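a well counts as active at a score of -1.3 or below (Tlr4 knock-down control median) or above 3 (raised signal); controls and wells holding fewer than 50 cells are excluded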. Meaning of the calls: active = Tnf reporter clearly lowered or raised; inactive = no clear change in Tnf reporter.
Here is a random part of about 17,000 reagents. About 1,110 of them (6.6%) were called active. 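Active means lowered or raised reporter signal; replicate intensities are raw and not normalised per plate.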 Unmarked entries are inactive. Not all columns of the deposit are shown.

Gene	Tnf reporter robust z-score	fewer than 50 cells in well
Mettl15	-1.41 (active)	enough cells in well
Rnf186	-0.56	enough cells in well
Or6c1		fewer than 50 cells per well; well left out of calls
4933431E20Rik	-1.29	enough cells in well
Or4z4	0.43	enough cells in well
Ghrh	-0.19	enough cells in well
Tmem38a	-0.77	enough cells in well
Eif3l	-0.26	enough cells in well
Or2d36		fewer than 50 cells per well; well left out of calls
Tmem202		fewer than 50 cells per well; well left out of calls
Tmem132d	0.94	enough cells in well
Trpc5	1.52	enough cells in well
Ankar		fewer than 50 cells per well; well left out of calls
Ppip5k2	-0.41	enough cells in well
Rcc1l	-0.71	enough cells in well
Hs3st3b1	-1.37 (active)	enough cells in well
Dkk4	0.98	enough cells in well
Cdyl2	2	enough cells in well
Taok3	-0.75	enough cells in well
Hmgcs1		fewer than 50 cells per well; well left out of calls
Yju2		fewer than 50 cells per well; well left out of calls
Fhip1b		fewer than 50 cells per well; well left out of calls
Hexb	-0.49	enough cells in well
Cabyr	0.39	enough cells in well
Aldh8a1	-0.81	enough cells in well
Drc2	-0.54	enough cells in well
Cnst	-0.42	enough cells in well
Nfxl1	1.32	enough cells in well
Arhgef2	-0.06	enough cells in well
Mitf	-0.89	enough cells in well
Trim30d	0.29	enough cells in well
Defa21		fewer than 50 cells per well; well left out of calls
Cd5	-0.53	enough cells in well
Arfip2		fewer than 50 cells per well; well left out of calls
Mmab	-0.5	enough cells in well
1700010I14Rik	-1.74 (active)	enough cells in well
Rnf222	-0.05	enough cells in well
Zbtb3	-0.29	enough cells in well
Or7g22	3.74 (active)	enough cells in well
Ranbp3l	1.04	enough cells in well
Rhbdl3	-0.2	enough cells in well
Slc38a1		fewer than 50 cells per well; well left out of calls
Aph1a	2.28	enough cells in well
Smoc2		fewer than 50 cells per well; well left out of calls
Slc43a2	-0.3	enough cells in well
Fbxw21	-0.21	enough cells in well
Tcf15	-0.86	enough cells in well
Bmp5	-0.09	enough cells in well
Cdc42bpb	2.17	enough cells in well
Reep2	0.54	enough cells in well
Matn2	-0.32	enough cells in well
Or10p22	0.31	enough cells in well
Lpcat2	-1	enough cells in well
Dact2	-0.47	enough cells in well
Wfdc2	-0.36	enough cells in well
Psmc3ip		fewer than 50 cells per well; well left out of calls
Ift74	0.26	enough cells in well
Tacr2	-0.93	enough cells in well
Sbk1	-0.32	enough cells in well
Ap1s1	-0.22	enough cells in well
Rbl1	0.29	enough cells in well
Inpp5k	-0.56	enough cells in well
Cpa4	0.4	enough cells in well
Hmga1	-0.98	enough cells in well
Tada2a	1.18	enough cells in well
Cmtm1	-0.18	enough cells in well
Frg1	-0.66	enough cells in well
Ankrd48		fewer than 50 cells per well; well left out of calls
Or5m3b	0.55	enough cells in well
Gm9946	0.03	enough cells in well
Gdf10	0.29	enough cells in well
Cdk11b	-0.66	enough cells in well
Ifna4	-0.2	enough cells in well
Or5m10	1.02	enough cells in well
Pabir2	-0.68	enough cells in well

Hits, among the entries above:
Gene	Tnf reporter robust z-score	fewer than 50 cells in well
Mettl15	-1.41 (active)	enough cells in well
Hs3st3b1	-1.37 (active)	enough cells in well
1700010I14Rik	-1.74 (active)	enough cells in well
Or7g22	3.74 (active)	enough cells in well
